According to patent US20250339441A1, “METHODS OF TREATING CANCER” (FOGHORN THERAPEUTICS INC., priority 2022, published 2025):
At least one read-out could not be matched to a standard name with certainty.

Assay: Population PK model (nonlinear mixed-effects, two-compartment) of oral Compound A patient concentration vs. time data
Assay type: in vivo, human
Conditions: tested a priori in the population PK model
Method: A population PK model based on orally administered Compound A dosing data in a total of 10 patients with metastatic uveal melanoma (UM) and advanced hematologic malignancies (e.g., acute myeloid leukemia (AML)) was performed.
Nonlinear mixed-effects models were fitted to concentration vs. time data of FHD-286. Various compartmental models with linear elimination (1-, 2- and 3-compartment), absorption models, structures of omega on clearances, volumes and absorption parameters (diagonal and block) were developed to assess the PK of Compound A.
Overall, a two-compartment model with linear elimination, a zero-order oral absorption, and a lag time of absorption adequately characterized the concentration-time profiles of Compound A.
Exploratory analysis of covariate effects was performed with appropriate plots presenting relationships between the ETAs (e.g., values reflecting the difference between and individual's parameter value and that of the population) of PK parameters to identify any remaining covariate trends. […] Therefore a “Multiple Dose Effect” on CL was included in the model to account for this change over time.
No other covariates were included as part of the model.

COC[C@H](NC(=O)c1ccn(S(C)(=O)=O)c1)C(=O)Nc1nc(-c2cccc(N3C[C@@H](C)O[C@@H](C)C3)n2)cs1 [Compound A, N-(1-((4-(6-(2,6-dimethylmorpholino)pyridin-2-yl)thiazol-2-yl)amino)-3-methoxy-1-oxopropan-2-yl)-1-(methylsulfonyl)-1H-pyrrole-3-carboxamide]
time-varying food effect on the relative bioavailability: not significant
